The list shows a part of the results. The main result of the screen is listed elsewhere. These columns were measured beside it and carry no call. The list favours compounds with an active or inconclusive main result. The note in brackets gives the kind of curve behind each potency; many fits are weak.
Assay: qHTS Assay to Find Inhibitors of Chronic Active B-Cell Receptor Signaling
Details: ABC-DLBCL IkBa-CBG/CBR reporter, luminescence ratio (green luciferase fused to IkBa over red control in TMD8 lymphoma cells), 4 h
In short: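 Cell line TMD8 (human ABC DLBCL), stably expressing tet-inducible CBG68-IkBa fusion and CBR; IMDM/0.5% FBS; cpd up to 46 uM; dox induction, 4 h, 37C/5% CO2; dual luminescence; green/red ratio; MG132 control.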

[1] = measured here: CBR red luminescence, cell number
[2] = measured here: IkBa-CBG green luminescence

COc1ccc(N(C(C)C(=O)NC2CCCCCC2)S(C)(=O)=O)cc1 (centres undefined)
AC50 [1]: 14.6 µM [falling, single point]

Cc1ccc(C(OCCN(C)C)c2cccc(C(F)(F)F)c2)cc1 (centres undefined)
AC50 [1]: 32.6 µM [falling, single point]

O=C1NC(CCc2ccccc2)C(=O)N1CCOc1ccccc1 (centres undefined)
AC50 [1]: 8.91 µM [rising, partial curve, poor fit]

CNCCCOc1ccc(Cl)cc1C(C)(C)C
AC50 [1]: 11.2 µM [falling, partial curve, poor fit]

O=C(Nc1cccc(F)c1)c1cc(S(=O)(=O)N2CCOCC2)ccc1N1CCCC1
AC50 [1]: 32.6 µM [falling, partial curve, poor fit]

COc1ccc(CN2CCN(C(=O)c3cccs3)CC2)cc1Br
AC50 [1]: 0.631 µM [rising, full curve, poor fit]

O=C(CCN1CCOCC1)NNC(=S)NC(=O)c1ccc(Br)cc1
AC50 [1]: 35.5 µM [falling, single point]

CCCNc1nc2c(c(=O)n(C)c(=O)n2C)n1Cc1ccc(F)cc1
AC50 [1]: 20.6 µM [falling, single point]

O=C(Nc1ccc(N2CCN(C(=O)c3ccco3)CC2)cc1)c1ccccc1Br
AC50 [1]: 25.1 µM [falling, single point]

CC(=O)Nc1ccc(S(=O)(=O)N2CCN(CCCOc3ccccc3Cl)CC2)cc1
AC50 [1]: 10.3 µM [falling, partial curve, poor fit]

COc1ccc(C(CNC(=O)Cc2ccccc2Cl)N2CCCCC2)cc1 (centres undefined)
AC50 [1]: 1.41 µM [rising, full curve, poor fit]

O=C(OCc1csc(-c2ccccc2)n1)c1cccs1
AC50 [1]: 12.6 µM [falling, single point]

CCn1cc(/C=C(\NC(=O)c2ccccc2F)C(=O)NCCCn2ccnc2)c2ccccc21
AC50 [1]: 31.6 µM [falling, partial curve, poor fit]

Cc1cccc(NC(=O)c2c(-c3ccccc3)noc2C)n1
AC50 [1]: 22.4 µM [rising, partial curve, poor fit]

CC(C)OC(=O)c1cn(-c2ccccc2)nc1-c1ccco1
AC50 [1]: 29.1 µM [falling, single point]

Cc1ccc(OCCC(=O)OCC(=O)Nc2ccccc2)cc1
AC50 [1]: 31.6 µM [falling, single point]

Cn1c(=O)c(=O)n(C)c2cc(S(=O)(=O)CCC(=O)NCc3ccccc3)ccc21
AC50 [1]: 3.55 µM [rising, partial curve, poor fit]

Cc1[nH]nc(SCC(=O)NCC(C)C)c1[N+](=O)[O-]
AC50 [1]: 17.8 µM [falling, single point]

CC1(C)Cc2c(c(N3CCOCC3)nc3sc4c(NCCN5CCOCC5)nnnc4c23)CS1
AC50 [1]: 0.891 µM [rising, full curve, poor fit]

O=C(Nc1ccc(N2CCN(C(=O)c3cccs3)CC2)c(Cl)c1)c1cccnc1
AC50 [1]: 15.8 µM [falling, single point]

COc1cccc(NC(=O)c2oc3ccccc3c2NC(=O)c2ccc3c(c2)OCO3)c1
AC50 [1]: 2.82 µM [falling, full curve, poor fit]

Cc1ccnc(NC(=O)C2CC(=O)N(c3ccc4c(c3)OCCO4)C2)c1 (centres undefined)
AC50 [1]: 35.5 µM [falling, single point]

CCOC(=O)c1cnn(-c2nc(SC)nc3sc4c(c23)CCCC4)c1N
AC50 [1]: 18.4 µM [rising, single point]

Cc1cccc(OCCOC(=O)C2CCN(S(=O)(=O)c3ccc(C)c(C)c3)CC2)c1
AC50 [1]: 7.08 µM [rising, partial curve, poor fit]

O=C(NCc1ccco1)c1cc(NS(=O)(=O)c2cccc([N+](=O)[O-])c2)ccc1O
AC50 [1]: 3.55 µM [falling, full curve]

C=C(C)CSc1nc(N)cc(=O)[nH]1
AC50 [1]: 35.5 µM [rising, partial curve, poor fit]

O=C(Oc1c(-c2ccco2)oc2ccccc2c1=O)c1cccnc1
AC50 [1]: 4.47 µM [falling, partial curve, poor fit]

O=C(Cn1c(=O)n(CC2CCCO2)c(=O)c2ccccc21)N1CCN(c2ccccc2)CC1 (centres undefined)
AC50 [1]: 16.4 µM [rising, single point]

COc1cccc(-c2noc(-c3cccnc3)n2)c1
AC50 [1]: 35.5 µM [falling, single point]

Cc1cccc(C)c1N(CC(=O)N/N=C/c1cc(Br)c(C)o1)S(C)(=O)=O
AC50 [2]: 5.8 µM [rising, full curve, poor fit]

Cc1cc(Nc2ccc3c(c2)OCCO3)n2nc(C)nc2n1
AC50 [1]: 0.58 µM [falling, partial curve, poor fit]

COc1cccc(-c2nn(-c3ccc(C)cc3)cc2C(=O)N(C)CC(=O)Nc2cccc(F)c2)c1
AC50 [1]: 29.1 µM [rising, single point]

O=[N+]([O-])c1ccc(Oc2ccc(S(=O)(=O)N3CCOCC3)cn2)cc1
AC50 [1]: 6.51 µM [rising, partial curve, poor fit]

Cn1c(N=NC(=O)c2ccccc2)c(O)c2ccccc21
AC50 [1]: 13 µM [falling, partial curve]

CCCCOC(=O)CNc1nnc(SCC(=O)OCC)[nH]c1=O
AC50 [1]: 29.1 µM [rising, single point]
AC50 [2]: 29.1 µM [falling, single point]

COc1ccc(N(C)S(=O)(=O)c2cccc(C(=O)Nc3ccc4c(c3)OCCO4)c2)cc1
AC50 [1]: 35.5 µM [falling, single point]

Cc1cccc(NC(=O)C2CCN(S(=O)(=O)c3c(C)noc3/C=C/c3ccco3)CC2)n1
AC50 [1]: 16.4 µM [falling, single point]

CC(C)c1ccc(C2N3CC4([N+](=O)[O-])CN2CC([N+](=O)[O-])(C3)C4(C)C)cc1 (centres undefined)
AC50 [1]: 18.4 µM [rising, partial curve, poor fit]

O=C(NC1CCCC1)C(c1ccc(F)cc1)N(Cc1ccc(F)cc1)C(=O)CCl (centres undefined)
AC50 [1]: 6.51 µM [falling, partial curve]

COc1ccc(C/C(C)=N/NC(=O)c2cccnc2)cc1
AC50 [1]: 18.4 µM [falling, single point]

CCN(CC)S(=O)(=O)c1ccc(N/N=C/c2cc(OC)ccc2O)nc1
AC50 [1]: 11.6 µM [rising, partial curve]

O=C1c2ccccc2S(=O)(=O)N1Cc1nc2ccccc2s1
AC50 [1]: 1.78 µM [rising, full curve]

Cc1ccc(NC(=O)CSc2nnc(-c3cc(C)on3)o2)cc1
AC50 [1]: 3.16 µM [rising, full curve, poor fit]

O=C(Nc1nccs1)c1ccc(S(=O)(=O)c2ccccc2)cc1
AC50 [1]: 0.708 µM [falling, full curve, poor fit]

N#Cc1cc2sc3nc4ccccc4n3c2cc1C#N
AC50 [1]: 9.2 µM [falling, partial curve, poor fit]

NNC(=O)c1cc2cc(OC(F)(F)F)ccc2[nH]1
AC50 [2]: 35.5 µM [falling, partial curve, poor fit]

Cc1cccc(NC(=O)C(=O)NCC2CCCN2S(=O)(=O)c2ccccc2)c1 (centres undefined)
AC50 [1]: 29.1 µM [falling, single point]

CC(C)N1C(=S)N(Cc2ccco2)C(=O)C1CC(=O)Nc1ccccc1 (centres undefined)
AC50 [1]: 35.5 µM [falling, single point]

COC(=O)c1nn(-c2ccccc2)c(Sc2ccc(C)cc2)c1/C=N/O
AC50 [1]: 7.94 µM [falling, partial curve, poor fit]

O=C(COC(=O)c1ccccn1)Nc1nc(-c2cccc([N+](=O)[O-])c2)cs1
AC50 [1]: 12.6 µM [rising, single point]

COc1cccc(/C=C/C(=O)NCCc2ccc3c(c2)OCCO3)c1
AC50 [1]: 7.31 µM [falling, partial curve]

COc1ccccc1[C@H]1C(c2ccc(F)cc2)=NN(c2ccccc2)[C@@H]1CO
AC50 [1]: 5.8 µM [rising, partial curve, poor fit]

Cc1ccc(-n2nc3cc(C)c(NC(=S)NC(=O)/C=C/c4ccco4)cc3n2)cc1
AC50 [1]: 0.231 µM [rising, partial curve, poor fit]

Cc1[nH]n(-c2ccccc2)c(=O)c1N=O
AC50 [2]: 7.08 µM [rising, partial curve, poor fit]

CN(C)S(=O)(=O)c1cc(NC(=O)COC(=O)CC2Sc3ccccc3NC2=O)ccc1Cl (centres undefined)
AC50 [1]: 1.03 µM [rising, full curve, poor fit]

O=c1ccc(-c2ccc(S(=O)(=O)Nc3cccc([N+](=O)[O-])c3)s2)n[nH]1
AC50 [1]: 14.1 µM [falling, partial curve]

COc1ccc(OC(=O)c2c(C)nn(-c3ccccc3)c2C)cc1
AC50 [1]: 3.55 µM [rising, partial curve]

Cc1ccc(S(=O)(=O)NCCN=C(CN2CCOCC2)NS(=O)(=O)c2ccc(C)cc2)cc1
AC50 [1]: 29.1 µM [falling, partial curve, poor fit]

COc1ccc2nc(Nc3ccccc3OC)sc2c1
AC50 [1]: 11.2 µM [falling, single point]

CCC1C(=O)C[C@H]2CCN3C(=O)CCCC1C23 (some centres undefined)
AC50 [1]: 14.6 µM [rising, partial curve, poor fit]

C=CCN1C(=O)/C(=C/c2ccc(O)c(OC)c2)S/C1=N/c1nccs1
AC50 [1]: 0.00731 µM [rising, full curve, poor fit]

C[C@@H]1CC=C[C@H]2[C@H]1C(=O)N(Cc1ccccc1)[C@H]2c1ccc(Br)cc1F
AC50 [1]: 31.6 µM [rising, single point]

C#CCCc1ccccc1/C=[N+](/C)[O-]
AC50 [1]: 4.11 µM [falling, partial curve, poor fit]
